Results: US11147786B2, “Methods of treating chronic dry eye disease using C16:1n7-palmitoleate and derivatives thereof” (Tersus Life Sciences, LLC, priority 2014, dated 2021)
Where “and” joins values, the source holds several entries; their conditions need not be identical. Equal entries are not always repeated. For at least one compound, name, drawing or mass did not settle the structure.

Tested on: patients with moderate to severe dry eye symptoms/MGD
Test: Meibomian gland dysfunction (MGD) score, Example 2
Assay type: in vivo, human
Settings: MGD score 0-4 (4 severe), Day 0 baseline before treatment, one line per patient
Excerpt: Twenty nine patients, each diagnosed as having moderate to severe dry eye symptoms/MGD, were selected for the study.
Patients were classified as having none, mild, or moderate meibomian gland secretion blockage by evaluating the secretion of the meibomian glands in the nasal, central, and temporal regions of the lower eyelid. MGD was scored using a 0-4 grading scale, 4 correlating with severe dysfunction. A summary of the grading scale is provided below: • 1=meibomian glands in all 3 regions secreting/cloudy • 2=meibomian glands in 2 out of 3 regions secreting/cloudy • 3=meibomian glands in 1 out of 3 regions secreting/cloudy • 4=no observable meibomian gland secretion in any of the 3 regions • 2+ and 2,3 are used interchangeably and mean more than ⅔<1.
After the initial baseline evaluation, patients received daily doses of a dietary supplement containing 210 mg of C16:1n7-palmitoleate for over 30 days.
Tear osmolarity (TL) and MGD for left and right eyes (LE and RE respectively) were scored at Day 0 (baseline evaluation) and at the follow-up visit (FV), see Table 2. A tear osmolarity score of below 308 mOsms/L is normal, 308-320 mOsms/L is mild dry eyes, 320-340 mOsms/L is moderate dry eyes, and above 340 mOsms/L is severe dry eye. […] Patients also recorded their comments regarding perceived improvements of their dry eye symptoms.

## CCCCCC/C=C\CCCCCCCC(=O)O [C16:1n7-palmitoleate]
Left eye
  Day 0 MGD LE: 3+ (2×) and 2, 3
Right eye
  Day 0 MGD RE: 3+ (2×) and 2, 3
